Measured values: publication PMC5522188
Like-named read-outs stand apart in the source and are kept apart here. These are yes or no findings as the source states them, for the method shown. Binding seen in cells or lysates may run through a third protein. Some entries that bind do so weakly or less than the wild type.

Chains of the proteins cited; added tags and fusions are not shown. Lines headed by an entry give the natural chain unless they say otherwise; changes in a name come on top. A line that says so, or that is headed by a name, gives the form on record, which may keep a tag or linker.
CENP-A R42A R43A R44A (3A) (P49450, form named): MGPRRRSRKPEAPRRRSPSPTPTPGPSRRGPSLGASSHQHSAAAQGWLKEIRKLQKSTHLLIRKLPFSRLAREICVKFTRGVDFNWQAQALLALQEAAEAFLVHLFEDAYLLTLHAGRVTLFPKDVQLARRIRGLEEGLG
CENP-A Del60-64 (L60-K64 deleted) (P49450, form named): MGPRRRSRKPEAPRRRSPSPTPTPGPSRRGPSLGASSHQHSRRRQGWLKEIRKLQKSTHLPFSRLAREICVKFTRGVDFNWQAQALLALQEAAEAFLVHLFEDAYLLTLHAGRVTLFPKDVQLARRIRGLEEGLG
CENP-A K49A R52A K53A K56A (4A) (P49450, form named): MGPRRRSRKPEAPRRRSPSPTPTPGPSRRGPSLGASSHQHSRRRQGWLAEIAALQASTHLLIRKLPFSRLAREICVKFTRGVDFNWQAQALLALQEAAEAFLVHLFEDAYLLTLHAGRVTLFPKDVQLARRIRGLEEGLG

Experiments:
Assay in all cases: co-IP; cell lysates made by sonication in 50 mM Tris pH 7.4, 150 mM NaCl, 1 mM EDTA, 1% NP-40 alternative, 15% glycerol; incubated with antibody and Protein A/G beads for 4 hours, washed three times with lysis buffer, western blotting; precipitating antibody and cell line not stated
[1] = biological target: CENP-A R42A R43A R44A (3A) (human) (UniProt P49450)
[2] = biological target: Centromere protein A (CENP-A), wild type (human) (UniProt P49450)
[3] = biological target: CENP-A Del60-64 (L60-K64 deleted) (human) (UniProt P49450)
[4] = biological target: CENP-A K49A R52A K53A K56A (4A) (human) (UniProt P49450)
[5] = biological target: Centromere protein A (CENP-A), wild type (human) (UniProt P49450); remark: listed apart in the source
[6] = biological target: CENP-A Del60-64 (L60-K64 deleted) (human) (UniProt P49450); remark: listed apart in the source

Measured: binding

Importin-β (from UniProt Q14974 1-876)
binds: [1] | [2] | [3] | [4]

B1: CENP-B (protein, UniProt P07199 1-599)
chain: MGPKRRQLTFREKSRIIQEVEENPDLRKGEIARRFNIPPSTLSTILKNKRAILASERKYGVASTCRKTNKLSPYDKLEGLLIAWFQQIRAAGLPVKGIILKEKALRIAEELGMDDFTASNGWLDRFRRRHGVVSCSGVARARARNAAPRTPAAPASPAAVPSEGSGGSTTGWRAREEQPPSVAEGYASQDVFSATETSLWYDFLPDQAAGLCGGDGRPRQATQRLSVLLCANADGSEKLPPLVAGKSAKPRAGQAGLPCDYTANSKGGVTTQALAKYLKALDTRMAAESRRVLLLAGRLAAQSLDTSGLRHVQLAFFPPGTVHPLERGVVQQVKGHYRQAMLLKAMAALEGQDPSGLQLGLTEALHFVAAAWQAVEPSDIAACFREAGFGGGPNATITTSLKSEGEEEEEEEEEEEEEEGEGEEEEEEGEEEEEEGGEGEELGEEEEVEEEGDVDSDEEEEEDEESSSEGLEAEDWAQGVVEAGGSFGAYGAQEEAQCPTLHFLEGGEDSDSDSEEEDDEEEDDEDEDDDDDEEDGDEVPVPSFGEAMAYFAMVKRYLTSFPIDDRVQSHILHLEHDLVHVTRKNHARQAGVRGLGHQS
binds: [5] | [6]
